This series has as its target T7 RNA polymerase (Bacteriophage T7) (UniProt P00573). Kind of series: EMSA. Conditions: transcription from T7 promoter template, polymerase halted at Tus-bound Ter; nearly 100 percent of templates in halted complex; purified recombinant protein; protein details: 6xHis, expressed in E. coli. For orientation: Mobility shift assays separate free from complexed probe on a gel.

Protein sequences, listed by entry. Tags and fused reporters are not part of them. Lines headed by an entry give the natural chain unless they say otherwise; changes in a name come on top.
UniProt P00573: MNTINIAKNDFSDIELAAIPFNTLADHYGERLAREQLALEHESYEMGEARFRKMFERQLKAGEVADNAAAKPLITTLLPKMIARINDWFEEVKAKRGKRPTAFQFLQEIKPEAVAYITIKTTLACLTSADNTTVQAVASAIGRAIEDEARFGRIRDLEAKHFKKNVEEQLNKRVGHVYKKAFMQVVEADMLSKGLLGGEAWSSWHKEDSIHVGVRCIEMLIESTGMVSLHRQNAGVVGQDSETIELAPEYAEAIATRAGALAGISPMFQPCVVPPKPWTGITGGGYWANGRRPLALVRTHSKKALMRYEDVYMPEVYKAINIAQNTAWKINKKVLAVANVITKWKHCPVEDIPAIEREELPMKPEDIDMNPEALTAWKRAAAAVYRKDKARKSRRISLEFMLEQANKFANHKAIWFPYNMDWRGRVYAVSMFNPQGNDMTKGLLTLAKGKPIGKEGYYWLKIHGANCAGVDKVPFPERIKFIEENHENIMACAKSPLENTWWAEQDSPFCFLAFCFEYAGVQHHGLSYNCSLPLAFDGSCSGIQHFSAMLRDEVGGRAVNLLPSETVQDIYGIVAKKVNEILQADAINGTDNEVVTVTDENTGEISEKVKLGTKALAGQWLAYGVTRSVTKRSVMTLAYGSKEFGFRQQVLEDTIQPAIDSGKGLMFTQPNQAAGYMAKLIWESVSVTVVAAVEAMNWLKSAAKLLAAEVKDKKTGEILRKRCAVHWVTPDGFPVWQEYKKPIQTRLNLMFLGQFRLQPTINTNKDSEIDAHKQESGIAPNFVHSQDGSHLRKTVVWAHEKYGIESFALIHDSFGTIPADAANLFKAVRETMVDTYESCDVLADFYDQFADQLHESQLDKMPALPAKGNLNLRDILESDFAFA

With “TAATACGACTCACTATAGG (double strand) [T7 promoter in halting template]”, the “activity on this sequence” value is “active”.

The record behind these values is patent US20140371080.
